In PMC4714748:
These are yes or no findings as the source states them, for the method shown. In cells and extracts the contact can be indirect. These calls come from enrichment with a bait or labelling near it, and not all partners need be listed. For part of these data: No binding means not detected with the bait. For part of these data: Where a sequence is shown, tags or fusion partners need not be part of it.

T1: WDR76-3XFLAG (Neurospora crassa) (UniProt Q7S1H9)
T1 sequence: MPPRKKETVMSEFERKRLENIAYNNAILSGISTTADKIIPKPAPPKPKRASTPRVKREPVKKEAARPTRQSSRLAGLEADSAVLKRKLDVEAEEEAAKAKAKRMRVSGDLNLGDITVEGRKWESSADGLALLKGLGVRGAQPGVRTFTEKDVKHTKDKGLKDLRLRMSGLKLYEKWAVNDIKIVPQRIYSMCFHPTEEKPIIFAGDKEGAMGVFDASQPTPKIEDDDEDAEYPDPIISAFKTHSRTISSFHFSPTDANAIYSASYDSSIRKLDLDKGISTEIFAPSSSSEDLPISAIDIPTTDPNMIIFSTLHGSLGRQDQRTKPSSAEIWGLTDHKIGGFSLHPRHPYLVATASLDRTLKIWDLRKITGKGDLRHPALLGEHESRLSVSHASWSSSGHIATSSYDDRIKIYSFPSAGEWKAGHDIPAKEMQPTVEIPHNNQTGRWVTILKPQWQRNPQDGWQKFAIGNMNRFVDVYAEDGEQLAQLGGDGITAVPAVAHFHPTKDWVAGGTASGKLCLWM

B1: WDR76 (NCU09302) (protein, UniProt Q7S1H9 1-521)
chain: T1 sequence

How the values were obtained:
[1] = target: T1, WDR76-3XFLAG (Neurospora crassa); assay: affinity purification with mass spectrometry; WDR76-3XFLAG purified on M2 FLAG affinity gel from N. crassa extracts; extraction buffer with 200 mM NaCl and, separately, with 250 mM KCl
[2] = target: MUS-30-3XFLAG (Neurospora crassa) (UniProt Q7SAC4); assay: affinity purification with mass spectrometry; MUS-30-3XFLAG purified on M2 FLAG affinity gel from N. crassa extracts; extraction buffer 50 mM HEPES-KOH pH 7.6, 2 mM EDTA, 10% glycerol, 2 mM DTT with 150 mM or 200 mM NaCl; hits also found in the mock, DIM-5-3XFLAG or DIM-9-3XFLAG samples were …
[3] = target: MUS-30-3XFLAG (Neurospora crassa) (UniProt Q7SAC4); assay: affinity purification with mass spectrometry; MUS-30-3XFLAG purified on M2 FLAG affinity gel from N. crassa extracts; extraction buffer 50 mM HEPES-KOH pH 7.6, 2 mM EDTA, 10% glycerol, 2 mM DTT with 250 mM KCl

| Molecule | binding [1] | binding [2] | binding [3] |
| --- | --- | --- | --- |
| MUS-30 (enzyme) | binds |  |  |
| B1 |  | binds | no binding (only in buffer containing 250 mM KCl) |
